No constants are given. Whether binding was seen depends on the method and setting. Some entries that bind do so weakly or less than the wild type.
How the values were obtained:
[1] = target: Skp homolog SKR-1 (C. elegans) (UniProt G5ECU1); assay: two-hybrid
DLK-1a (C. elegans) = target: T1, DLK-1a (C. elegans) (UniProt O01700); assay: two-hybrid
T1 sequence: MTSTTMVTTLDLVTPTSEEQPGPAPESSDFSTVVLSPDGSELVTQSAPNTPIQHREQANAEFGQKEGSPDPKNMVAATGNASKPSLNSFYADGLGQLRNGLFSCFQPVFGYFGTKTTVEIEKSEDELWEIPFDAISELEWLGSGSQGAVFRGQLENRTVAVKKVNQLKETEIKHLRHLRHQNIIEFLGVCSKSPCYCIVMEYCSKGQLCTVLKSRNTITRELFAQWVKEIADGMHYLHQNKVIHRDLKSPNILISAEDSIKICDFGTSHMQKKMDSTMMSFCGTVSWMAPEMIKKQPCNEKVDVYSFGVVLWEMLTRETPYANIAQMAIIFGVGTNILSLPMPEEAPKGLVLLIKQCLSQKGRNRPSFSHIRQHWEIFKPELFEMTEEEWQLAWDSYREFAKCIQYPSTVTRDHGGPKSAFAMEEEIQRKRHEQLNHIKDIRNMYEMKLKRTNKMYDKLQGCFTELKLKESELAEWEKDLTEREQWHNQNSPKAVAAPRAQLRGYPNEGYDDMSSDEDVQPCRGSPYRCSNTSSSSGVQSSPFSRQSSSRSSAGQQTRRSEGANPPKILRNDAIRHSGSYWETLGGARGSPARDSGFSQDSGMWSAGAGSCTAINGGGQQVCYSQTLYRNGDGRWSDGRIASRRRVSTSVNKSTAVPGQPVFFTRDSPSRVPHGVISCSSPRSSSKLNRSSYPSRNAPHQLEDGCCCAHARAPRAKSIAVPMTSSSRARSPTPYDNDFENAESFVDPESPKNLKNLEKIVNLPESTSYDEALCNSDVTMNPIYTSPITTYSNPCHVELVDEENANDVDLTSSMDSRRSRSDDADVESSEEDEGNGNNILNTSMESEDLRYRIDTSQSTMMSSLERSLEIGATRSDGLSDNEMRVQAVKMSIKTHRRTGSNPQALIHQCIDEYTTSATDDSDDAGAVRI

Sequences of proteins named here, by UniProt entry; tags and fusion partners are left off.
UniProt G5ECU1: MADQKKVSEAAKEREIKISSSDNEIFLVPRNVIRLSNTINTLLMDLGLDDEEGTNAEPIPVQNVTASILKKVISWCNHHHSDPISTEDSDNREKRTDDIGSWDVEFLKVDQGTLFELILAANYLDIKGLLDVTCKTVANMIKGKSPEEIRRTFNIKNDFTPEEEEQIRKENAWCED
UniProt Q22071: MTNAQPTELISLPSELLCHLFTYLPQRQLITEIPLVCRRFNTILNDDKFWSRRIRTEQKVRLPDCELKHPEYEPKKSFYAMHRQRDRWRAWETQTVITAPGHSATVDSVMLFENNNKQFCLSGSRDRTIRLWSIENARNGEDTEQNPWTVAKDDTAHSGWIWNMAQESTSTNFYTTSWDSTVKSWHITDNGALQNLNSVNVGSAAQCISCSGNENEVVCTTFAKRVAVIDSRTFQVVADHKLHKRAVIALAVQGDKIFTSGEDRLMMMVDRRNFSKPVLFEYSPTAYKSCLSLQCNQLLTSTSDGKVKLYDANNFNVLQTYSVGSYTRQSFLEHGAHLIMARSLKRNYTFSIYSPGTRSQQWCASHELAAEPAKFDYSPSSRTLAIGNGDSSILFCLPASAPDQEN

Row | Substance | binding [1] | binding (DLK-1a (C. elegans))
1 | F-box and WD40 repeat domain-containing protein MEC-15 (from UniProt Q22071 1-406) | binds | –
2 | HSP-90 (from UniProt Q18688 1-702) | – | binds

Source: article doi:10.1101/2020.02.13.944967
